The term AC50 denotes the concentration at which the activity in the assay is half-maximal.

Data on 64 compounds can be found in PubChem BioAssay AID2685 (National Center for Advancing Translational Sciences (NCATS), 2010).

This assay in a line: qHTS Assay for Lipid Storage Modulators in Drosophila S3 Cells.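 As to cell number change: cells counted by Cell Tracker Red CMTPX staining in the red channel.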 The following applies: BODIPY lipid droplet fluorescence, 18-24 h; for cell number change: measured here: cell count max response, cells fed with added oleic acid. The method, boiled down: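 Drosophila S3 cells loaded with oleic acid (400 uM, as added) and compounds at several concentrations; lipid droplets imaged by 488-nm laser-scanning cytometry, 500–530 nm intensity and object ratio to cell channel. Percent activity normalized to 20 uM Triacsin C.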
(In general: Quantitative high-throughput screening tests each substance at several concentrations.)

[1] abbreviates: measured here: cell number channel AC50, cells fed with added oleic acid.
Setting [2] is: measured here: lipid fluorescence (Fed channel) AC50, cells fed with added oleic acid.

This is one part of the list. The main result of the screen is listed elsewhere. These columns were measured beside it and carry no call. Compounds called inactive in the main read-out are mostly missing here. Words in brackets tell the shape of the fitted curve; partial curves, single points and poor fits give uncertain potencies.

For the compound `C[C@@]12CCC=C[C@H]1[C@H](c1ccc(C(F)(F)F)cc1)N(Cc1ccccc1)C2=O`, the cell number change is -45.1%. In addition, the AC50 under setting [1] was 29.1 µM [falling, single point]. Further, under setting [2], the AC50 is 29.1 µM [falling, single point].
`Cc1cccc(C(=O)NC(=S)N2CCc3ccccc3C2)c1`: the cell number change turned out to be 14%. Under setting [1], the AC50 is 0.461 µM [falling, single point].
Turning to `Cc1cc(C)c2oc(C(=O)Nc3ccc(S(=O)(=O)N4CCC(C)CC4)cc3)cc(=O)c2c1`, the cell number change came out at 24.7%. The AC50 under setting [2] was 29.1 µM [rising, single point].
With `CCOC(CCn1c(SCC(=O)Nc2cc(C)on2)nc2ccccc2c1=O)OCC`, the AC50 under setting [2] is 3.66 µM [rising, single point].
In the case of `Cc1ccccc1Nc1nc(N)nc(CSc2ccccc2)n1`, the cell number change was -33.3%. Besides, the AC50 under setting [1] is 32.6 µM [falling, single point]. For the same compound, the AC50 under setting [2] is 18.4 µM [rising, partial curve].
Regarding `Cn1ccc(C(=O)Oc2ccc(C(=O)Nc3ccc(F)cc3F)cc2)n1`, the cell number change came to 21.4%.
`CCn1cc2nc(SCC(=O)Nc3ccc(F)cc3F)n(Cc3ccccc3)c(=O)c2n1`: the cell number change is -18.8%. Further, the AC50 under setting [2] is 0.58 µM [rising, single point].
For the compound `CCOc1ncccc1C(=O)Nc1ccccc1C(=O)NCc1ccc2c(c1)OCO2`, the cell number change was -34.3%. The AC50 under setting [1] is 3.26 µM [falling, partial curve].
`COc1ccc(NC(=O)Cn2cccc2)cc1Cl`: the cell number change is -41.7%.
`CCOC(=O)c1cccc(C2=CC(=O)CC(C)(C)C2)c1`: the cell number change is -9.7%.
For `CCn1c(=O)cc(SCC(=O)NCCC2=CCCCC2)c2ccccc21`, the cell number change was found to be 2.98%. Besides, the half-maximal activity concentration (AC50) under setting [2] was 4.11 µM [rising, full curve, poor fit].
On to `CCCOc1ccc(N/C=C/C(=O)c2cc(OC)c(OC)c(OC)c2)cc1`, for which the cell number change came to 4.01%. The AC50 under setting [1] is 4.11 µM [rising, single point]. Besides, under setting [2], the AC50 is 2.31 µM [rising, partial curve].
In the case of `Cc1sc2ncnc(N3CCN(Cc4ccccc4)CC3)c2c1-c1ccccc1`, the cell number change was -0.855%.
For `CC(=O)c1sc(NC(=O)c2c(F)cccc2F)nc1C`, the cell number change stood at 40.8%. The AC50 under setting [1] is 14.6 µM [rising, single point]. Further, under setting [2], the AC50 is 20.6 µM [rising, single point].
Take `Cc1ccc(-c2csc(N/N=C/c3ccco3)n2)c(C)c1`: the cell number change is -8.59%. For the same compound, the AC50 under setting [1] was 0.731 µM [falling, single point]. Under setting [2], the concentration at half-maximal activity (AC50) is 1.16 µM [falling, single point].
In the case of `Cc1ccc2nc(N3CCN(C(=O)c4ccco4)CC3)sc2c1`, the cell number change is -2.02%.
For the compound `CCN(Cc1ccccc1)S(=O)(=O)c1csc(C(N)=O)c1`, the cell number change came to 8.94%.
With `O=C(C1=C(O)C(=O)N(CC2CCCO2)C1c1cccnc1)c1ccco1` (stereo not drawn), the cell number change is -2.78%. The AC50 under setting [1] is 0.13 µM [falling, full curve, poor fit].
As for `CCc1ccc(C2=NNC(=Nc3cccc(S(=O)(=O)N(C)C)c3)SC2)cc1`, the cell number change was 34.2%. The half-maximal activity concentration (AC50) under setting [1] was 4.11 µM [rising, partial curve, poor fit]. Also, the AC50 under setting [2] was 8.2 µM [rising, partial curve].
Take `Cc1cccc(N=CC=C2OC(C)(C)C(C)(C)O2)c1`: the cell number change is -2.1%. For the same compound, the AC50 under setting [2] is 32.6 µM [rising, single point].
As for `O=C(O)c1ccc([N+](=O)[O-])c(CS(=O)(=O)c2ccc(Cl)cc2)c1`, the cell number change was found to be 7.56%. Further, under setting [2], the AC50 was 0.146 µM [falling, full curve, poor fit].
Take `Cc1sc(NC(=O)c2ccccc2F)c(CN2CCCCC2C)c1C` (stereo not drawn): the cell number change was -3.54%.
Turning to `Cn1cccc1Cc1nnc(SCC(=O)N2CCN(c3ccccc3)CC2)n1-c1ccc(F)cc1`, the cell number change was -28.3%. Besides, the AC50 under setting [2] was 29.1 µM [falling, single point].
`CC1Sc2ccc(S(=O)(=O)CCC(=O)N3CCCC3)cc2NC1=O` (stereo not drawn): the cell number change came to 11.3%. For the same compound, the AC50 under setting [2] was 3.66 µM [rising, full curve].
Consider `Nc1nc2ccc(N3CCOCC3)cc2s1`, for which the cell number change came out at 17.8%.
Same read-out and setting: to `CSc1nc2ccc3nc(NC(=O)c4cccs4)sc3c2s1` belongs 169%.
Regarding `Cc1ccc(C)c(S(=O)(=O)N2CCN(CC(=O)N3CCc4ccccc4C3)CC2)c1`, the cell number change was 46.6%. Besides, the concentration at half-maximal activity (AC50) under setting [1] is 0.411 µM [rising, full curve]. For the same compound, the AC50 under setting [2] was 13 µM [rising, partial curve].
Regarding `O=C(Nc1cccc(NS(=O)(=O)c2ccc(S(=O)(=O)NC3CC3)cc2)c1)c1ccccn1`, the cell number change was -13.5%. Further, the AC50 under setting [2] is 0.461 µM [rising, full curve].
Regarding `Cc1cc(NC(=O)CC2CCCC2)n(-c2nc3ccccc3[nH]2)n1`, the cell number change is -13.4%. Besides, under setting [2], the AC50 was 1.84 µM [rising, partial curve].
On to `COc1cc2c(cc1OC)C(C)N(C(=O)Nc1ccccc1)CC2` (stereo not drawn), for which the cell number change is -22.8%. Further, the AC50 under setting [2] is 29.1 µM [falling, single point].
In the case of `CC(CNS(=O)(=O)c1ccc2c(c1)CC(=O)N2C)c1ccccc1` (stereo not drawn), the cell number change came to 23.7%.
Regarding `O=C(CSc1nnc(CCc2ccccc2)n1-c1ccc(Cl)cc1)NCc1ccccc1`, the cell number change was -48%. Also, under setting [1], the AC50 was 2.59 µM [rising, single point].
With `CC(=O)CSc1nc2c(c(=O)[nH]c(=O)n2C)n1Cc1ccccc1Cl`, the cell number change was found to be 22%. The AC50 under setting [2] was 29.1 µM [rising, single point].
Regarding `Nc1c(S(=O)(=O)c2cccc(Cl)c2)c2nc3ccccc3nc2n1CCN1CCOCC1`, the cell number change came out at 23.9%. The half-maximal activity concentration (AC50) under setting [1] was 0.461 µM [rising, full curve].
As for `COC(=O)c1cccc(NC2CC(=O)N(c3ccc(OC)c(OC)c3)C2=O)c1` (stereo not drawn), the cell number change is -4.23%.
As for `O=C(O)CSc1nc2ccc(C(=O)c3ccccc3)cc2[nH]1`, the cell number change was -3.51%. Moreover, under setting [2], the AC50 was 29.1 µM [rising, single point].
`O=C(COC(=O)C1CC1)Nc1ccc([N+](=O)[O-])cc1C(F)(F)F`: the cell number change was -6.59%. Under setting [2], the AC50 is 29.1 µM [falling, single point].
With `O=C(/C=N/O)Nc1ccc(F)cc1`, the cell number change was -2.11%. The AC50 under setting [2] was 29.1 µM [falling, single point].
On to `Cc1cc(NS(=O)(=O)c2ccc(NS(=O)(=O)c3ccc(CC(C)C)cc3)cc2)nc(C)n1`, for which the cell number change is -1.92%. Also, the AC50 under setting [2] was 0.562 µM [falling, full curve, poor fit].
For the compound `O=C(NC(=S)N1CCCC(C(F)(F)F)C1)c1ccc(F)cc1` (stereo not drawn), the cell number change is 20.6%. Moreover, the AC50 under setting [1] was 0.00461 µM [rising, full curve, poor fit].
For the compound `O=C(O)C1C2C=CC3(CN(C4CCCC4)C(=O)C13)O2` (stereo not drawn), the cell number change worked out at 8.29%.
`CCOC(=O)c1cc(-c2ccc(C)cc2)nc2nc(SC)[nH]c(=O)c12`: the cell number change worked out at 15.3%. Also, under setting [2], the AC50 was 5.17 µM [rising, partial curve].
Take `CN(C#N)c1nc(Cl)nc(Nc2cccc(Cl)c2)n1`: the cell number change is -14.3%.
For the compound `CC(NC(=O)c1cccc(C(F)(F)F)c1)C(c1ccccc1)N1CCOCC1` (stereo not drawn), the cell number change is 47.4%. Also, the AC50 under setting [2] was 7.31 µM [rising, partial curve].
Take `CC(=O)c1sc(NC(=O)c2ccc(F)cc2)nc1-c1ccccc1`: the cell number change was -30.2%. In addition, the half-maximal activity concentration (AC50) under setting [1] is 0.82 µM [falling, full curve]. Besides, the AC50 under setting [2] is 0.731 µM [falling, single point].
For `O=C(CCOc1ccccc1)Nc1ccnn1C1CCN(Cc2ccc(O)cc2)CC1`, the cell number change amounted to 5.28%. Moreover, under setting [2], the half-maximal activity concentration (AC50) was 32.6 µM [falling, partial curve, poor fit].
In the case of `CCCC(=O)N1CC2(C)CN(C(=O)CCC)CC(CCC)(C1)C2=O`, the cell number change is -39.6%. For the same compound, the AC50 under setting [1] is 14.6 µM [falling, partial curve]. Besides, the AC50 under setting [2] was 29.1 µM [falling, single point].
Regarding `N#CC1(C#N)COC23CCCCC2C1(C#N)C(=N)O3` (stereo not drawn), the cell number change was found to be 24.6%. Moreover, the AC50 under setting [2] is 0.651 µM [rising, single point].
Consider `CS(=O)(=O)c1ccc(C(=O)OCC(=O)NC2CCS(=O)(=O)C2)cc1[N+](=O)[O-]` (stereo not drawn), for which the cell number change stood at 11.8%. The AC50 under setting [2] is 6.51 µM [falling, single point].
Take `CN(Cc1ccccc1)C(=O)c1ccc(NC(=O)c2ccccc2)cc1`: the cell number change was -13.2%. Also, the AC50 under setting [2] was 1.46 µM [rising, partial curve].
Turning to `Cc1c(C(C)(C)C)s/c(=N/S(=O)(=O)c2ccccc2)n1C`, the cell number change was -38.8%.
As for `O=C(OCC(=O)N1CCCC1=O)c1nc(Cl)ccc1Cl`, the cell number change is -12%. Besides, the AC50 under setting [2] is 0.366 µM [falling, full curve, poor fit].
On to `CC(=O)c1ccc(S(=O)(=O)N2CCC3(CC2)OCCO3)cc1`, for which the AC50 under setting [1] was 6.51 µM [rising, single point] and the concentration at half-maximal activity (AC50) under setting [2] is 25.9 µM [falling, single point].
`Cc1cccc(OCc2nnc(SCC(=O)N(c3ccccc3)C3CCS(=O)(=O)C3)o2)c1` (stereo not drawn): the cell number change is -19.1%.
Consider `CCc1ccccc1NC(=O)Nc1ccsc1C(=O)OC`, for which the cell number change is -13.9%.
For the compound `CC1CCC2(CC1)NC(=O)N(CC(=O)N1CCN(S(=O)(=O)c3ccc4c(c3)CCC4)CC1)C2=O` (stereo not drawn), the cell number change stood at 11.8%. For the same compound, under setting [2], the AC50 was 0.116 µM [falling, full curve, poor fit].
For the compound `COc1cc(OC)cc(C(=O)NCCc2cnc[nH]2)c1`, the cell number change amounted to 47.9%. Under setting [1], the concentration at half-maximal activity (AC50) was 29.1 µM [rising, single point]. Besides, the AC50 under setting [2] is 29.1 µM [rising, single point].
Turning to `Cc1nn(-c2ccccc2)c(C)c1CN`, the cell number change stood at 5.92%.
With `COc1ccc(-n2c(-c3ccco3)nc3c(cnn3-c3ccccc3C)c2=O)cc1`, the cell number change came out at 17%. Also, under setting [2], the AC50 was 0.00259 µM [rising, full curve, poor fit].
On to `CCOC(=O)c1nnc(-c2ccc(C)cc2)nc1N1CCSCC1`, for which the cell number change was -27.9%. Also, under setting [1], the AC50 is 4.11 µM [falling, single point].
With `COc1ccc(CN2CCN(C(=O)Cn3c(=O)oc4cc(Cl)ccc43)CC2)c(OC)c1OC`, the cell number change turned out to be 17.6%.
For `O=[N+]([O-])c1ccc2c(c1)C=C1CCCCC1(N1CCCC1)O2` (stereo not drawn), the cell number change is -3.85%. For the same compound, the AC50 under setting [2] was 29.1 µM [falling, single point].
In the case of `COc1ccc(S(=O)(=O)N2CCN(S(=O)(=O)c3ccc4c(c3)OCCO4)CC2)cc1`, the cell number change turned out to be 26.4%. Moreover, the AC50 under setting [1] is 4.11 µM [rising, full curve, poor fit].
Regarding `CCNc1cc2oc(=O)c(CN3CCOCC3)c(C)c2cc1C`, the cell number change was -13%.
